Source: the supplement of paper PMC12889115
This is one part of the list. Values are raw readings; no control value is given beside them.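 Primary screen: polymyxin B was added at a level permeabilizing Salmonella outer membranes while sparing inner membranes. DMSO wells, both with and without polymyxin B, established maximum growth. Plate-to-plate variation meant each plate was ranked on its own, and the lowest-OD600 compounds were selected as hits.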

Tested on: Salmonella enterica serovar Typhimurium SL1344
Experiment: bacterial growth OD600 after 18 h with compound and polymyxin B; higher = more bacterial growth (less inhibition)
Conditions: 50 µM, Mueller-Hinton broth

SMILES	bacterial growth OD600 (polymyxin B 1 µg/mL)	bacterial growth OD600 (polymyxin B 0.75 µg/mL)
CCCC(=O)NC1CC(=O)N(Cc2ccccc2C(F)(F)F)C1 (centres undefined)	0.867	
CCOc1ccccc1[C@@H]1C[C@H]2CN(C3Cc4ccccc4C3)C(=O)[C@]23CCCN13		0.002
COc1ccccc1-c1cc2c(c(OC)c1)OCCN(C(=O)c1ccco1)C2		0.785
CCOC(=O)N1CCN(Cc2nc(-c3cccc(C(F)(F)F)c3)oc2C)CC1	0.916	
Cc1ncc2c(c1CNS(=O)(=O)c1cccs1)CCN(C(=O)CC1CCCC1)C2		0.845
CC(C)CNC(=O)c1cn(C(C)C)cc(C(=O)N(C)Cc2cccc3ccccc23)c1=O		0.725
CC(C)Cc1ccc(CN2CCOc3ccc(CN4CCC(O)(c5cccnc5)CC4)cc3C2)cc1		0.006
CC(C)C[C@H](NC(=O)C1(N(C)C)Cc2ccccc2C1)C(N)=O		0.82
CCCNC(=O)N1CCCC(Cc2ccc(F)cc2F)(C(=O)OCC)C1 (centres undefined)	0.877	
CCn1cc(CN(C)CC2CCN(CCc3cccc(F)c3)CC2)cn1	1.14	
COC(=O)c1ccc(CNC(=O)CN2Cc3ccccc3OC(c3ccccc3F)C2)cc1 (centres undefined)		0.849
COC(=O)CCC(=O)NC1CCCN(Cc2ccc(CC(C)C)cc2)C1 (centres undefined)	1.15	
CCC1CN(CC(=O)NCCCOc2cccnc2)Cc2cc(OC)ccc2O1 (centres undefined)		0.871
O=C(c1cc(COc2ccc(-n3cncn3)cc2)on1)N1CCCCC1c1ccccn1 (centres undefined)	0.849	
CSc1ccccc1C(=O)NCc1c(C)ncc2c1CCN(C(=O)Cc1ccccc1)C2		0.829
CCN1C(=O)CC(CC(=O)N2CCN(C3CCCCC3)C(=O)C2)(c2cccc(C(F)(F)F)c2)C1=O (centres undefined)		0.984
COc1cccc(CN2CCC(CO)(CCCc3ccccc3)CC2)c1OC	0.861	
Cc1c(CC(=O)NCc2ccncn2)c2c(n1Cc1ccccc1)CCCC2=O	1.09	
Cc1ccc(-n2ncc3c2CCCC3NC(=O)CCN2CCCC2=O)cc1C (centres undefined)	0.903	

Reformatted: entries from further up
CC(C)C[C@H](NC(=O)C1(N(C)C)Cc2ccccc2C1)C(N)=O
  bacterial growth OD600 (polymyxin B 0.75 µg/mL): 0.82
CCN1C(=O)CC(CC(=O)N2CCN(C3CCCCC3)C(=O)C2)(c2cccc(C(F)(F)F)c2)C1=O (centres undefined)
  bacterial growth OD600 (polymyxin B 0.75 µg/mL): 0.984
